In PubChem BioAssay AID1487 (National Center for Advancing Translational Sciences (NCATS), 2009):
The list shows a part of the results. Shown are side measurements of this screen, not its main read-out; they come without a call. The list favours compounds with an active or inconclusive main result. Words in brackets tell the shape of the fitted curve; partial curves, single points and poor fits give uncertain potencies.

Test: qHTS Assay for Modulators of Lamin A Splicing
Settings: HeLa LMNA splicing GFP/RFP minigene ratio, 48 h
Summary of the method: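 S3 HeLa stable clones carrying a lamin A-EGFP splicing minigene plus DsRed2 were seeded at 600 cells/well in Opti-MEM with 2% FBS, pin-dosed and incubated 48 h at 37°C. Acumen cytometry (488 nm) gave the GFP/RFP total-intensity ratio.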

[1] = measured here: GFP splicing reporter channel
[2] = measured here: RFP viability control channel

COc1ccc2nc(Nc3nc(CSc4ccc(C)cc4)cc(=O)[nH]3)nc(C)c2c1
AC50 [1]: 20 µM [falling, partial curve, poor fit]

CCOc1ccc(-n2c(SCc3ccccc3)nc3c([nH]c4ccccc43)c2=O)cc1
AC50 [1]: 35.5 µM [falling, single point] | AC50 [2]: 35.5 µM [falling, single point]

COc1ccccc1NC(=O)COC(=O)c1ccc2c(c1)nc(C)n2-c1ccccc1
AC50 [2]: 0.631 µM [rising, full curve, poor fit]

CN1CCN(C(CNC(=O)C(=O)Nc2ccc(Cl)cc2)c2cccnc2)CC1 (configuration not stated)
AC50 [1]: 35.5 µM [falling, single point] | AC50 [2]: 35.5 µM [falling, single point]

O=C(COC(=O)c1c[nH]c(=O)[nH]c1=O)Nc1ccccc1
AC50 [1]: 14.1 µM [falling, single point]

O=C(Nc1ccccc1)c1cnc(-c2ccccc2)nc1-c1ccccc1
AC50 [1]: 28.2 µM [falling, single point] | AC50 [2]: 35.5 µM [falling, single point]

N#CC1=C(N)NC(SCC(=O)c2ccc(Br)cc2)=C(C#N)C12CCCCC2
AC50 [1]: 8.91 µM [rising, partial curve, poor fit] | AC50 [2]: 17.8 µM [rising, single point]

CCOC(=O)c1ccc(NC(=O)c2c(NCc3sccc3C)sc3c2CCC(C)C3)cc1 (configuration not stated)
AC50 [1]: 0.00355 µM [rising, full curve, poor fit] | AC50 [2]: 22.4 µM [rising, partial curve]

Cc1nn(CCO)c2nc(-c3cccs3)cc(C(F)(F)F)c12
AC50 [1]: 7.94 µM [rising, partial curve, poor fit] | AC50 [2]: 0.891 µM [rising, partial curve]

N#CCCn1c(=O)c(-c2ccccc2)nc2cnc(Nc3ccccc3)nc21
AC50 [1]: 11.2 µM [falling, partial curve] | AC50 [2]: 11.2 µM [falling, partial curve]

O=C(/C=C/c1ccc(S(=O)(=O)N2CCOCC2)cc1)NCc1ccc(Cl)cc1
AC50 [1]: 15.8 µM [rising, single point] | AC50 [2]: 11.2 µM [rising, partial curve]

COc1ccc(F)cc1S(=O)(=O)NCC(c1ccco1)S(=O)(=O)c1cccs1 (configuration not stated)
AC50 [1]: 0.0708 µM [falling, partial curve, poor fit]

CCOc1ccc(N2C(=O)CC(N(C)Cc3ccccc3)C2=O)cc1 (configuration not stated)
AC50 [1]: 0.562 µM [falling, full curve, poor fit] | AC50 [2]: 0.0562 µM [falling, full curve, poor fit]
